Our source for the binding values is patent US20130267584A1.

Sequences of proteins named here, by UniProt entry; tags and fusion partners are left off. A change or cut given only in a name is not applied to a line headed by its entry. Residues count along the entry.
UniProt Q07954, residues 805-1184: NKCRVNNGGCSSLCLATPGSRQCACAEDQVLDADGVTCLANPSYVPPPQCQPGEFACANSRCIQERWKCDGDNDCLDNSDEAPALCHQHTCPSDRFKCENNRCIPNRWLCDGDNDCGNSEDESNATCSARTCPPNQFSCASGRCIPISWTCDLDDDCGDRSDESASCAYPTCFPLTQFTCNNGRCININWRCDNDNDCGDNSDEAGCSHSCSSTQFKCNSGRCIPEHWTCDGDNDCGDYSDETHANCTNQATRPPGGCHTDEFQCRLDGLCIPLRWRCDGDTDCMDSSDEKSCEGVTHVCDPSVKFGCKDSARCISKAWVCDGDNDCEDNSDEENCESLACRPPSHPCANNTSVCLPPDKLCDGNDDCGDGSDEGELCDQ
UniProt P10646, residues 29-304: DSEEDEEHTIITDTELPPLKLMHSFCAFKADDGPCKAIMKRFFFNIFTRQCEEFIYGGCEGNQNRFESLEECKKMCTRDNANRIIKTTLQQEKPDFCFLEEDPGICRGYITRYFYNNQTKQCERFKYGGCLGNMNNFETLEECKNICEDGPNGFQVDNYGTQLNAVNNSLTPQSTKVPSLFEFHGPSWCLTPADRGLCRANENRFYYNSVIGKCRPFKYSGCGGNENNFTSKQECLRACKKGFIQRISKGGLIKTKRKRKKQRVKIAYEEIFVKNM

No constants are given. Whether binding was seen depends on the method and setting. Some binding calls cover weakened binding; strength is not graded here.

The experiment concerns the target biotinylated recombinant human LRP-1 Cluster II Fc Chimera protein (R&D Systems) (human) (UniProt Q07954). As to the kind of experiment: SPR (BIAcore T200, 37 C), biotinylated LRP-1 Cluster II Fc on NeutrAvidin C1 chip, fl-TFPI 3.6-142.3 nM single cycle. Background: SPR reads the build-up and loss of mass on a sensor chip optically.

As for “recombinant human fl-TFPI (Baxter Innovations GmbH) (from UniProt P10646 29-304)”, the binding result was “binds”.
